In PMC11687307, “The calcium-binding protein S100A1 binds to titin’s N2A insertion sequence in a pH-dependent manner” (The Journal of General Physiology, 2024):
No constants are given. Whether binding was seen depends on the method and setting. Some results given as binding are weak or reduced against the parent protein; the word gives no strength.

B1: S100A1 (mouse) (natural protein)
chain: MGSELESAMETLINVFHAHSGQEGDKYKLSKKELKDLLQTELSGFLDVQKDADAVDKVMKELDENGDGEVDFKEYVVLVAALTVACNNFFWETS
notes: S100A1, mouse; No tag is named; source: E. coli BL21(DE3), purified (Capto-Q anion exchange, phenyl Sepharose)

Tests used:
S100A1 (mouse) = target: B1; assay: co-IP; purified proteins, 500 µg each, with anti-S100A1 antibody overnight at 4°C, captured on magnetic beads; 250 mM NaCl, 20 mM HEPES, 1 mM Ca^2+, pH 6; SDS-PAGE, silver staining, densitometry; both purified
[1] = target: UN2A-FRET (UN2A inserted between CFP and YFP) (mouse); assay: SEC; HPLC on TSKgel G2000SWxl; UN2A-FRET 20 µM mixed with S100A1 0 to 25 µM, 30 min at room temperature; 150 mM NaCl, 20 mM HEPES, 1 mM CaCl2 (pCa 3), pH 7.4; both purified
[2] = target: UN2A-FRET (UN2A inserted between CFP and YFP) (mouse); assay: condition: only without Ca^2+ (pCa 10, 1 mM EGTA); S100A1 up to 25 µM; SEC; HPLC on TSKgel G2000SWxl; UN2A-FRET 20 µM mixed with S100A1 0 to 25 µM, 30 min at room temperature; 150 mM NaCl, 20 mM HEPES, 1 mM EGTA (pCa 10), pH 7.4; both purified
[3] = target: UN2A-FRET (UN2A inserted between CFP and YFP) (mouse); assay: condition: only without Ca^2+ (pCa 10, 1 mM EGTA), pH 7.4; 1 µM; FRET or BRET; FRET within the CFP-UN2A-YFP reporter with and without S100A1; protein at 1 µM; 10 mM HEPES, 100 mM NaCl, 1 mM EGTA (pCa 10), pH 7.4; 1 h, room temperature; excitation 433 nm; both purified
[4] = target: UN2A-FRET (UN2A inserted between CFP and YFP) (mouse); assay: condition: only without Ca^2+ (pCa 10, 1 mM EGTA), pH 6; 1 µM; FRET or BRET; FRET within the CFP-UN2A-YFP reporter with and without S100A1; protein at 1 µM; 10 mM HEPES, 100 mM NaCl, 1 mM EGTA (pCa 10), pH 6; 1 h, room temperature; excitation 433 nm; both purified

binding (S100A1 (mouse))	binding [1]	binding [2]	binding [3]	binding [4]	Binder
binds weakly	–	–	–	–	UN2A, unique insertion sequence of the N2A region of titin (mouse, amino acids 8539-8655) (domain or fragment, titin, mouse, UN2A region between Ig domains I80 and I81, amino acids 8539-8655; Gene synthesised by GeneArt; No tag is named; source: E. coli BL21(DE3) pLysS, purified (Capto-Q anion exchange, SEC)) DERKKQEKIEGDLRAMLKKTPALKKGSGEEEEIDIMELLKNVDPKEYEKYARMYGITDFRGLLQAFELLKQSQEEETHRLEIEELEKSERDEKEFEELVAFIQQRLTQTEPVTLIKD
–	binds weakly	no binding	no binding	no binding	B1
